Measured values as given in paper doi:10.1101/2024.11.14.623596.
No constants are given. Whether binding was seen depends on the method and setting. In cells and extracts the contact can be indirect. These calls come from enrichment with a bait or labelling near it, and not all partners need be listed. For part of these data: No binding means not detected with the bait. Tags and fused reporters may be left off the sequences shown.

Chains of the proteins cited; added tags and fusions are not shown. Lines headed by an entry give the natural chain unless they say otherwise; changes in a name come on top. A line that says so, or that is headed by a name, gives the form on record, which may keep a tag or linker.
UniProt P53995: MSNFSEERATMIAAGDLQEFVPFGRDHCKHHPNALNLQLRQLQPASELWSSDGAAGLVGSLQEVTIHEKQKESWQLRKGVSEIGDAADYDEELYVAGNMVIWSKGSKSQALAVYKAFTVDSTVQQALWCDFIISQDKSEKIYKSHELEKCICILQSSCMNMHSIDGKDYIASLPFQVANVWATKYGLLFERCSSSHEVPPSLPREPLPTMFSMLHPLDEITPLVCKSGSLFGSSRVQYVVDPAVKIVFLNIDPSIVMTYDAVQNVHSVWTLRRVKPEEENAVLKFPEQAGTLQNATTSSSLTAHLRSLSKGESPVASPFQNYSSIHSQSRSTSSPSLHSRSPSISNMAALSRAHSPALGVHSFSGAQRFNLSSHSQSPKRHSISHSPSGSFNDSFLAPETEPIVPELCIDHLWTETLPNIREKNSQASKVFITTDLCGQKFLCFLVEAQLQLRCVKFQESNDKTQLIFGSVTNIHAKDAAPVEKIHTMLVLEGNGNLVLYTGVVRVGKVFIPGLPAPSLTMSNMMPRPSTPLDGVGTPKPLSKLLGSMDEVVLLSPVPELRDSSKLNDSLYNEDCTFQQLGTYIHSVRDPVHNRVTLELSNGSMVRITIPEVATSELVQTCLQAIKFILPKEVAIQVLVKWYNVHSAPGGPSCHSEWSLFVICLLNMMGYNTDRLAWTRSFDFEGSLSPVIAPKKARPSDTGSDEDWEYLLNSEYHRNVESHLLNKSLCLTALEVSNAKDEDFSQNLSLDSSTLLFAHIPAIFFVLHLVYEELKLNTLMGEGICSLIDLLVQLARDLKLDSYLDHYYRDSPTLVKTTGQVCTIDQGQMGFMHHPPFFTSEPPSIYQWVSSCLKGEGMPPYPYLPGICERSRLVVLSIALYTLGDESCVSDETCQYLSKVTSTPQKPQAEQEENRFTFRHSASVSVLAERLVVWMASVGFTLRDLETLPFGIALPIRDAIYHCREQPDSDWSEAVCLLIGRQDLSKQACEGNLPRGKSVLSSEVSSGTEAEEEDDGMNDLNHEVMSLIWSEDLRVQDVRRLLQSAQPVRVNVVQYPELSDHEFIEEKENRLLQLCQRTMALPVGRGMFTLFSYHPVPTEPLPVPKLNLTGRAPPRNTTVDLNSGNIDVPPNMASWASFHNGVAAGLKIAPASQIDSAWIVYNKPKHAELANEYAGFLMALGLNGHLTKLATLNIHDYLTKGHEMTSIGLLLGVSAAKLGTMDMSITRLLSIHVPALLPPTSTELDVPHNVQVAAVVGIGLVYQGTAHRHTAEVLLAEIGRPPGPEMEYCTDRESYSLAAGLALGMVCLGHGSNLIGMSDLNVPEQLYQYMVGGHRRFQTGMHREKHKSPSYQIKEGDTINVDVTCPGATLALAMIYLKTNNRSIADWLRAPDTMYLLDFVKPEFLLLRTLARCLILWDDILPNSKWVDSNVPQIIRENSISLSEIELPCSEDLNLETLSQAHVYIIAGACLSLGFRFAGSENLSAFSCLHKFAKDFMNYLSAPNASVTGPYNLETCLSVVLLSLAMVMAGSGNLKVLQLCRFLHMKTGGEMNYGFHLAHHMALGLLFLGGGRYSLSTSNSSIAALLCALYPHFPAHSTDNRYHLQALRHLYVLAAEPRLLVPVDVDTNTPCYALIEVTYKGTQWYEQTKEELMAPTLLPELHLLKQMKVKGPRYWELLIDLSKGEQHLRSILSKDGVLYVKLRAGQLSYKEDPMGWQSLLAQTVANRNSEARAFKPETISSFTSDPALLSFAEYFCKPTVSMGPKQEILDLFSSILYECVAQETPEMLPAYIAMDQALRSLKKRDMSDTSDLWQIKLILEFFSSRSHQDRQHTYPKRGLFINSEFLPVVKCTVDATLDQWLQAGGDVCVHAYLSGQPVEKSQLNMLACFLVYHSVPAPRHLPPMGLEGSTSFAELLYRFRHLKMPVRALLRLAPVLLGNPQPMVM
UniProt Q91Z96: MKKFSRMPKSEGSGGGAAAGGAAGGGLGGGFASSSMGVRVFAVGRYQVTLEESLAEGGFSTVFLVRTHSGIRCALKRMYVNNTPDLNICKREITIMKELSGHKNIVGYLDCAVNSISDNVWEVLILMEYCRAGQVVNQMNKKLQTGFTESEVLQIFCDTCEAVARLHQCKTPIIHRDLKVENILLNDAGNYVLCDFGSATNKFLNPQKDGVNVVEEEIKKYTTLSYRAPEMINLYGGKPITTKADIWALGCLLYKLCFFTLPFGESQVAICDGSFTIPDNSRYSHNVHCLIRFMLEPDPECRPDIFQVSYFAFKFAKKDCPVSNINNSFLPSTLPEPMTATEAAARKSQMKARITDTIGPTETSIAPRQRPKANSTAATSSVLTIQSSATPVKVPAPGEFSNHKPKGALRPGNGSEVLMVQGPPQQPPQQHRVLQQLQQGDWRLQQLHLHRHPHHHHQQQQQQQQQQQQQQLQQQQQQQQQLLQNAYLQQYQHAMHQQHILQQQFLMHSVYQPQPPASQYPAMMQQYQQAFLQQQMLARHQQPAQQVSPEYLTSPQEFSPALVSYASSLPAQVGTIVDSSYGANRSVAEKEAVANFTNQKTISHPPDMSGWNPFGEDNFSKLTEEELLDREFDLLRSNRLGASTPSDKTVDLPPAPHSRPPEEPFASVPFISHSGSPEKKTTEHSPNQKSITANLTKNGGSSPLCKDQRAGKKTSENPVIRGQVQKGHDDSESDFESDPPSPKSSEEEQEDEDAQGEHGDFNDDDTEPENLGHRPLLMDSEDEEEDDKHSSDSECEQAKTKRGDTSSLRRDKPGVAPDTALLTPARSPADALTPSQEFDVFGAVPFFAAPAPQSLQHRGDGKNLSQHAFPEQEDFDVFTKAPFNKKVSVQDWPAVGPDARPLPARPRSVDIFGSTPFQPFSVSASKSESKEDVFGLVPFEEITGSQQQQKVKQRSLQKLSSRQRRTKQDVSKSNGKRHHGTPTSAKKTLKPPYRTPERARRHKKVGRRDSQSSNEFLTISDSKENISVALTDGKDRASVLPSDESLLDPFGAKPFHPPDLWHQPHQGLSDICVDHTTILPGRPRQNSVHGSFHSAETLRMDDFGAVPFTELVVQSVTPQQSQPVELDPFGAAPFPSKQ
UniProt Q8BWW4: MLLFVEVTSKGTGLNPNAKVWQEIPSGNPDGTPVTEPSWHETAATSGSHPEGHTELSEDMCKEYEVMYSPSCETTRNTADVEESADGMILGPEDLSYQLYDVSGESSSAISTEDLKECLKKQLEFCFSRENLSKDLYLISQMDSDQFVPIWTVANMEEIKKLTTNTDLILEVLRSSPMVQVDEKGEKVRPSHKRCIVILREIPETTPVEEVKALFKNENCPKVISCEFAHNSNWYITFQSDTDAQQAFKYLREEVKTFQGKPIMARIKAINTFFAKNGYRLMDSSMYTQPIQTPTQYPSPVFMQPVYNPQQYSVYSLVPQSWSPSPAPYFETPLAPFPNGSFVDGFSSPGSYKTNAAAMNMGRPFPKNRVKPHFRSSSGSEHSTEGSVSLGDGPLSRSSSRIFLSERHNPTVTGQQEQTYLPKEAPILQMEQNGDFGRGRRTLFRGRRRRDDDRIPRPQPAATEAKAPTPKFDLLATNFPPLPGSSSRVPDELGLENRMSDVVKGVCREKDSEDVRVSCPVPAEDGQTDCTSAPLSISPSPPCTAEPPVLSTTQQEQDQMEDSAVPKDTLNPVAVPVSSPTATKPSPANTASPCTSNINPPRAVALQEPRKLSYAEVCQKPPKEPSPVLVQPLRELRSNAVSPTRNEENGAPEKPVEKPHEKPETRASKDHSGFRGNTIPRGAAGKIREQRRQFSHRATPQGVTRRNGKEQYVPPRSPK
LARP4 (Q8BWW4, form named): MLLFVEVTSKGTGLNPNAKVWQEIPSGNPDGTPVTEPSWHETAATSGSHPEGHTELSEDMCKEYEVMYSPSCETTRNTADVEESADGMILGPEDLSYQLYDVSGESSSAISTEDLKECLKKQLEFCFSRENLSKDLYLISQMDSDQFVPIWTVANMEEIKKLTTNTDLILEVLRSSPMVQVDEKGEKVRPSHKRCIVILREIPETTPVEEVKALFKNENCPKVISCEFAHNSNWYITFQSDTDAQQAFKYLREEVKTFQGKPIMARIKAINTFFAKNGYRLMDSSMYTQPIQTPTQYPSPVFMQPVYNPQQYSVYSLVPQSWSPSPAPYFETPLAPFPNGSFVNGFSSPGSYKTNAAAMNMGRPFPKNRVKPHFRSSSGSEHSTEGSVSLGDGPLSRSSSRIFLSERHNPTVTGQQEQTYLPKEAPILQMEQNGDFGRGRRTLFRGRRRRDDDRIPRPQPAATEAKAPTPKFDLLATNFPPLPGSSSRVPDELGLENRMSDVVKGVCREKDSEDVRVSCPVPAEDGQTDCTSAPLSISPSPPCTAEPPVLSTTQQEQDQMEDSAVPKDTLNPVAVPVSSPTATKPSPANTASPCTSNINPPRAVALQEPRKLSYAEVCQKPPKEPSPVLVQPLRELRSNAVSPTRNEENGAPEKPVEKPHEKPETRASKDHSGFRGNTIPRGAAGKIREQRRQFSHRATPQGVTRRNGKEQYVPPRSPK
UniProt Q6A0A2: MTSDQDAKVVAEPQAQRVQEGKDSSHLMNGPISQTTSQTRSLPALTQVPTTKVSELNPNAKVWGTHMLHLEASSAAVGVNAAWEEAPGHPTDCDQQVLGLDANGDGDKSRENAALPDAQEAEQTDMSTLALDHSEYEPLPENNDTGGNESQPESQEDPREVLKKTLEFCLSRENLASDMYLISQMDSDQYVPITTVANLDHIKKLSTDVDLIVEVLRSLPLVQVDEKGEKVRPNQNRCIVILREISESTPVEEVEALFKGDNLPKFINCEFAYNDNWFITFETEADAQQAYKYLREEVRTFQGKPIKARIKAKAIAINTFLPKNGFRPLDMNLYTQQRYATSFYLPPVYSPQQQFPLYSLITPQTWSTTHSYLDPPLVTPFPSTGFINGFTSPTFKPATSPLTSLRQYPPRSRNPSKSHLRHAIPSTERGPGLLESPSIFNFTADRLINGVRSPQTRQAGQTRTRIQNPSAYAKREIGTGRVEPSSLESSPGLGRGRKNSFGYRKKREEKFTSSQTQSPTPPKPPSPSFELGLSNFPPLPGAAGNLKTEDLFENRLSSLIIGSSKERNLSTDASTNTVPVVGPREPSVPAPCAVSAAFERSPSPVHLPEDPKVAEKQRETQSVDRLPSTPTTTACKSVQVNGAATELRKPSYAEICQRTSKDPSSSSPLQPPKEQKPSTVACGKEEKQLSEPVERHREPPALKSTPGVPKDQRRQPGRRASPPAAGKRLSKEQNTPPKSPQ
UniProt P60335: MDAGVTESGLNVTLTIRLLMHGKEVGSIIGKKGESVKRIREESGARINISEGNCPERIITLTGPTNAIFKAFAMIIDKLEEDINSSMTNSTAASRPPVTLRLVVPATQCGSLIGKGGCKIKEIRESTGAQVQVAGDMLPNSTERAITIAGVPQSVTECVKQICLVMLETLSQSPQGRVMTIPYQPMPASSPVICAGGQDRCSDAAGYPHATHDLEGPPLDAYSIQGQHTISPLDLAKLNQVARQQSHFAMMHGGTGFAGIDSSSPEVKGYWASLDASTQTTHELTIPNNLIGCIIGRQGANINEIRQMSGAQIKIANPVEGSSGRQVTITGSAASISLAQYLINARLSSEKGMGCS
UniProt Q61990: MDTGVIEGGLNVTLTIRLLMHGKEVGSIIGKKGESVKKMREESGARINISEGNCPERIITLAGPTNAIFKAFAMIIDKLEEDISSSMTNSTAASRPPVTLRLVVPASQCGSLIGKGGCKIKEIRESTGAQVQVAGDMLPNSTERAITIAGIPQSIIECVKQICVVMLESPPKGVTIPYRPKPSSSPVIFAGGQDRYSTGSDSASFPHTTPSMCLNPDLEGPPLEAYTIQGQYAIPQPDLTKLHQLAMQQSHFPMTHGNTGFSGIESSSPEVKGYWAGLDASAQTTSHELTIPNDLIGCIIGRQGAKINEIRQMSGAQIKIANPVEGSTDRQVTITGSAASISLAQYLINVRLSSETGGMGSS

The molecules below were run against T1, TENT5C-EGFP (Tent5c-EGFP knock-in) (mouse (endogenous in fetal liver erythroblasts)) (UniProt Q5SSF7) (assay: proximity labelling).
T1 sequence: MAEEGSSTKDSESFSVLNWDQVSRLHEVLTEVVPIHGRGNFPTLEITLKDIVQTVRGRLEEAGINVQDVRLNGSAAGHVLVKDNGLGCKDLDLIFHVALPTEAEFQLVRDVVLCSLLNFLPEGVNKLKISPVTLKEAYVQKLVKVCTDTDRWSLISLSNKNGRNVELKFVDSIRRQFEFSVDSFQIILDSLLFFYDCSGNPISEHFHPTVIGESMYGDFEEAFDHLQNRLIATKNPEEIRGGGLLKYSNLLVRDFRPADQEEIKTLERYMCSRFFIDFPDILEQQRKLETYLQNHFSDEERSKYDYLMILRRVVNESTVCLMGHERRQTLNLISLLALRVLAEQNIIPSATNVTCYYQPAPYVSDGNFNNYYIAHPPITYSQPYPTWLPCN

Row | binding | Molecule
1 | binds | Anapc1 (from UniProt P53995 1-1944)
2 | binds | Bmp2k (from UniProt Q91Z96 1-1138)
3 | binds | LARP4 (from UniProt Q8BWW4 1-719)
4 | binds | LARP5 (from UniProt Q6A0A2 1-741)
5 | no binding | PCBP1 (from UniProt P60335 1-356)
6 | no binding | PCBP2 (from UniProt Q61990 1-362)

Biological target: T1, TENT5C-EGFP (Tent5c-EGFP knock-in) (mouse (endogenous in fetal liver erythroblasts))
Test: proximity labelling
Remark: another data set of the same source

Row | binding | Molecule
7 | binds | Otud4 (protein, UniProt B2RRE7 1-1107) MEAAVGAPDGVDQGGVGPLEDETPMDAYLRKLGLYRKLVAKDGSCLFRAVAEQVLHSQSRHVEVRMACIRYLRENREKFEAFIEGSFEEYLKRLENPQEWVGQVEISALSLMYRKDFVIYQEPNVSPSHVTENNFPEKVLLCFSNGNHYDIVYPITYKDSSAMCQSLLYELLYEKVFKTDVSKIMMGLEASEVAEESNSEISDSEDDSCKSKSTAATDVNGFKPSGSENPKNNGNSADLPLSRKVLKSLNPAVYRNVEYEIWLKSKQAQQKRDYSIAAGLQYEVGDKCHQVRLDHNGKLSNADIHGVHSENGLVLSEELGKKHTPKNLKPPPPESWNTVSGKKMKKPNSGQNFHSDTDYRGPKNLNKPIKAPSALPPRLQHPSSGVRQHAFSSHSTGSQSQKSSSEHKNLSRMPSQITRKPDRERAEDFDHVSRESYYFGLSPEERREKQAIEESRLLYEIQNRDEQAFPALSSSSVSQSPSQNSNACVPRKSSHARDRKGSMRRADAEERKDKDSLRGHTHVDKKPEPSTLEISDDKCTRVSSPSKSKKECPSPVEQKPAEHIPLSNPAPLLVSPEVHLTPAVPSLPATVPAWPSEPTTFGPTGVPAQIPILSVTQTTGPDAAVSQAHLTPSPVPVSIQAVNQPLMPLPQTMSLYQDPLYPGFPCSEKGDRAIAPPYSLCQTGEDLPKDKNILRFFFNLGVKAYSCPMWAPHSYLYPLHQAYMAACRMYPKVPVPVYPQNTWFQEAPPAQSESDCPCTDAHYSLHPEASVNGQMPQAEMGPPAFASPLVIPPSQVSEGHGQLSYQPELESENPGQLLHAEYEESLSGKNMYPQQSFGPNPFLGPVPIAPPFFPHVWYGYPFQGFVENPVMRQNIVLPPDDKGELDLPLENLDLSKECDSVSAVDEFPDARVEGAHSLSAASVSSKHEGRVEQSSQTRKADIDLASGSSAVEGKGHPPTQILNREREPGSAEPEPKRTIQSLKEKPEKVKDPKTAADVVSPGANSVDRLQRPKEESSEDENEVSNILRSGRSKQFYNQTYGSRKYKSDWGSSGRGGYQHVRGEESWKGQPNRSRDEGYQYHRHVRGRPYRGDRRRSGMGDGHRGQHT
8 | binds | Ubap2l (protein, UniProt Q80X50 1-1107) MMTSVGTNRARGNWEQPQNQNQTQHKQRPQATAEQIRLAQMISDHNDADFEEKVKQLIDITGKNQDECVIALHDCNGDVNRAINVLLEGNPDTHSWEMVGKKKGVSGQKDGGQTESNEEGKENRDRDRDYSRRRGGPPRRGRGASRGREFRGQENGLDGTKSGGPSGRGTDRGRRGRGRGRGSSGRRGGRFSAQGMGTFNPADYAEPANTDDNYGNSSGNTWNNTGHFEPDDGTRLDFIGVEGSNYPRKFETAPGAWRTATEEWGTEDWNEDLSETKIFTASNVSSVPLPAENVTITAGQRIDLAVLLGKTPSSMENDSSNLDPSQAPSLAQPLVFSNSKQNAISQPASGSTFSHHSMVSMLGKGFGDVGEAKGGSTTGSQFLEQFKTAQALAQLAAQHSQSGSTTTSSWDMGSTTQSPSLVQYDLKSANDSTVHSPFTKRQAFTPSSTMMEVFLQEKPPAVATSTAAPPPPSSPLPSKSTSAPQMSPGSSDNQSSSPQPAQQKLKQQKKKTSLTSKIPALAVEMPGSADISGLNLQFGALQFGSEPVLSDYESTPTTSASSSQAPSSLYTSTASESSSTVSSNQSQESGYQSGPIQSTTYTSQNNAQGPLYEQRSTQTRRYPSSISSSPQKDLTQAKNGFSSVQATQLQTTQSVEGATGSAVKSESPSTSSIPSLNETVPAASLLTTANQHSSSLSGLSHTEEIPNTTTTQHSSALSTQQNTLSSSTSSGRTSTSTLLHTSVESEANLHSSSSTFSTTSSTVSAPPPVVSVSSSLNSGSSLGLSLGSNSTVTASTRSSVATTSGKAPPNLPPGVPPLLPNPYIMAPGLLHAYPPQVYGYDDLQMLQTRFPLDYYSIPFPTPTTPLTGRDGSLASNPYSGDLTKFGRGDASSPAPATTLAQPQQNQTQTHHTTQQTFLNPALPPGYSYTSLPYYTGVPGLPSTFQYGPAVFPVAPTSSKQHGVNVSVNASATPFQQPSGYGSHGYNTGVSVTSSNTGVPDISGSVYSKTQQSFEKQGFHSGTPAASFNLPSALGSGGPINPATAAAYPPAPFMHILTPHQQPHSQILHHHLQQDGQTGSGQRSQTSSIPQKPQTNKSAYNSYSWGAN
9 | binds | Ubap2 (protein, UniProt Q91VX2 1-1132) MMTSVSNDRCRGAREKPQMPTAHAAQSQKQVVQATAEQMRLAQVIFDKNDSDFEAKVKQLMEVTGKNQDECIVALHDCNGDVNKAINILLEGNSDTTSWETVGGKKKNFGRESSENKENREKRTEREASRGRGTNNRKGRGGNRVREFKGEENGIDCSQGDKPAERGKRARGRGFGRGRGRGTGRFSAQSMGTFNPADYSESMSTDGCGTKLAVWEAAQNGTDEGPEGLAKSHSMSQEPPSKSSYGLKGAWKNSVEEWTTEDWTEDLSETKVFTASSAPAENHVTPGHSIDLVALLHKPAPPTQATEVNSFETSQQQGFGQALVFTNSQHNNQMAPGTANSTSASSYSPQSLSSVLGSGFGELPQSNMVNISNSQILDKLKPPGLSPFPAASSAQQNDTASPPATTAAWDLKPSAPQPSVLSRLDFKSQPEPSPVLSQLSQRQQHQTQAVSVPPPGLESFSSLAKPRESTAGDGPSTVSRLLQLPNMTVENIVSAHQPQPKHIKLPKRRVPPASKVPVSAVEMPGSSDVTGLNVQFGALEFGSEPSLSEFGSAASASENSNQIPISLYPKSLSEPLNASFPMTSAVQSSTYTTSVVTSSTLTSSALSSTSPVTTSSSYDQSSVHTRIAYQSSASPPDSAPGSVANGHGGGRSQHTVDTTSSVPAPKKTDPSALPSVSTLPGPASCTALLPSSAQHTATLPSLTPAAAELSSSPLSQLSSSLSGHQNSMTSAHATRSTSTPHTHASVESTASSAAFSAAATSAPSAPSSGVVLPGSMSTVSSLCLGGTTVSVPSSSTRATALVTSGKAPPNLPQGVPPLLHNQYLVGPGGLLPAYPIYGYDELQMLQSRLPMDYYGIPFAAPTALASRDGNLANNPYSGDVTKFGRGDSASPAPPTTPAQAQQSQSQTHHTAQQPFLNPGLPPGYSYTGLPYYTGVPSAFQYGPTMFVPPTSAKQHGVALSTPPTPFQQASGYGQHAYSTGYDDLTQGTAAGDYTKGGYGGSSQAPNKSTGSGPGKGVSVSSGTGLPDMTGSVYNKTQTFDKQGFHAGTPPPFSLPSALGSTGPLAPAAAPGYAPAPFLHIMPAHQQPHSQLLHHHLQQDAPSGSGQRSQPSSLQPKSQASKPTYGSAPYWTN
